Read-outs that look alike come from different tables or passages of the source. These are yes or no findings as the source states them, for the method shown. Some results given as binding are weak or reduced against the parent protein; the word gives no strength. For some assays here: Where a sequence is shown, tags or fusion partners need not be part of it.

By UniProt entry, the sequences of proteins in these tests, tags left out. Where a name states a change or a piece, a line headed by the entry shows the natural chain unless it says otherwise.
UniProt P53224, whole entry, looked up, stated change not applied: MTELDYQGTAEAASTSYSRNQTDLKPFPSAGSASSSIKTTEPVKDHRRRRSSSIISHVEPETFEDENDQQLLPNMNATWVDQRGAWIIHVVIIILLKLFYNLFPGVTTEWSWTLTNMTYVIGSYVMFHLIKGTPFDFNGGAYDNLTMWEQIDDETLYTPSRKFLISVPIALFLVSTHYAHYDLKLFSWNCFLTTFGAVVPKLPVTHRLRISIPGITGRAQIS

Common to all, as to test: cryo-EM structure
Experiment [1] addresses T1, Lcb2 (S. cerevisiae) (UniProt P40970).
T1 sequence (chain, pyridoxal 5'-phosphate (PLP) as internal aldimine with K366): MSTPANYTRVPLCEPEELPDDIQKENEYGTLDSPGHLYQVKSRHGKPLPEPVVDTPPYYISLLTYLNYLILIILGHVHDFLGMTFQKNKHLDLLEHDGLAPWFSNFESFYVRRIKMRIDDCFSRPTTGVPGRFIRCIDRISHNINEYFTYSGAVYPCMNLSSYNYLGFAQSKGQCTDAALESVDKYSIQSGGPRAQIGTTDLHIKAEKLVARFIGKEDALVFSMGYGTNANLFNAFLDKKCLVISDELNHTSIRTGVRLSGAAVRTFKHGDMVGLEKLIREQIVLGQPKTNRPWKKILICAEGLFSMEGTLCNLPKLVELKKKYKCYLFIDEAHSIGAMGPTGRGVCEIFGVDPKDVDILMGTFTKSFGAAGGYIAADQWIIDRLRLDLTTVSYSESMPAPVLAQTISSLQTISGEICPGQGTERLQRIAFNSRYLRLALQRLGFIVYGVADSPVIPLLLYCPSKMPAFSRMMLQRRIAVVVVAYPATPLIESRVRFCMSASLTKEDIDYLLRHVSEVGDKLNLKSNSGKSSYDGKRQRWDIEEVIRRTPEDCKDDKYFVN

Experiment [2] concerns the target T2, Lcb1, internally 3xFLAG-tagged after P9 (S. cerevisiae) (UniProt P25045).
T2 sequence: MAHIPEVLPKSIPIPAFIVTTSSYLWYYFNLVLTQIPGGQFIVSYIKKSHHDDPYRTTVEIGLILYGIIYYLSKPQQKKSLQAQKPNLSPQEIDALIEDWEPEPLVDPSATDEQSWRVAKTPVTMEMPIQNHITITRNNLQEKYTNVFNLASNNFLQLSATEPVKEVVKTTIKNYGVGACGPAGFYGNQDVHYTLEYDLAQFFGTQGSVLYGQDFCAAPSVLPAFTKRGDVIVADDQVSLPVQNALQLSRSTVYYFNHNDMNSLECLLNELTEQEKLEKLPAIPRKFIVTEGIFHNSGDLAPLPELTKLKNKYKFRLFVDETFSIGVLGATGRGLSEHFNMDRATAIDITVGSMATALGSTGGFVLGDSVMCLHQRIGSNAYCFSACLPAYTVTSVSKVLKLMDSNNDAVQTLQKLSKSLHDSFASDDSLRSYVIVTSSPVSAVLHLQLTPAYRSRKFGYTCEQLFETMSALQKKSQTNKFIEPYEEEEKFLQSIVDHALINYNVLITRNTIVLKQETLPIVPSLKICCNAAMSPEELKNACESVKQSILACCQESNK

For experiment [3], the target named is T1, Lcb2 (S. cerevisiae). This is another data set of the same source.
For experiment [4], the target named is T2, Lcb1, internally 3xFLAG-tagged after P9 (S. cerevisiae). The source holds these as a separate data set.

Turning to “Orm1 non-phosphorylatable version (ORM1^AAA; S51A, S52A, S53A) (from UniProt P53224 1-222)”, the binding result (in the experiment with Lcb2 (S. cerevisiae) [1]; in experiment [2]) was “binds” each time.

B1: Tsc3 (protein, UniProt Q3E790 1-80)
chain: MTQHKSSMVYIPTTKEAKRRNGKSEGILNTIEEVVEKLYWTYYIHLPFYLMASFDSFFLHVFFLTIFSLSFFGILKYCFL
As to B1, the binding result with Lcb2 (S. cerevisiae) [3] is “binds”.

B2: Lcb2 (enzyme, S. cerevisiae)
chain: T1 sequence (chain, pyridoxal 5'-phosphate (PLP) as internal aldimine with K366)
modifications: pyridoxal 5'-phosphate (PLP) as internal aldimine with K366
In the case of B2, in experiment [4], the binding result is “binds”.

B3: Sac1, PI4P phosphatase (enzyme, UniProt P32368 1-623)
chain: MTGPIVYVQNADGIFFKLAEGKGTNDAVIHLANQDQGVRVLGAEEFPVQGEVVKIASLMGFIKLKLNRYAIIANTVEETGRFNGHVFYRVLQHSIVSTKFNSRIDSEEAEYIKLLELHLKNSTFYFSYTYDLTNSLQRNEKVGPAASWKTADERFFWNHYLTEDLRNFAHQDPRIDSFIQPVIYGYAKTVDAVLNATPIVLGLITRRSIFRAGTRYFRRGVDKDGNVGNFNETEQILLAENPESEKIHVFSFLQTRGSVPIYWAEINNLKYKPNLVLGENSLDATKKHFDQQKELYGDNYLVNLVNQKGHELPVKEGYESVVHALNDPKIHYVYFDFHHECRKMQWHRVKLLIDHLEKLGLSNEDFFHKVIDSNGNTVEIVNEQHSVVRTNCMDCLDRTNVVQSVLAQWVLQKEFESADVVATGSTWEDNAPLLTSYQNLWADNADAVSVAYSGTGALKTDFTRTGKRTRLGAFNDFLNSASRYYQNNWTDGPRQDSYDLFLGGFRPHTASIKSPFPDRRPVYIQLIPMIICAALTVLGATIFFPKDRFTSSKNLLYFAGASIVLALSTKFMFKNGIQFVNWPKLVDVGFLVVHQTHDKEQQFKGLKYAQSPKFSKPDPLKRD
Turning to B3, in the experiment with Lcb2 (S. cerevisiae) [3], the binding entry is on record as “binds”.

For the origin of these results see paper doi:10.1101/2023.02.03.526835 (bioRxiv, 2023).
